Data taken from US20100021918A1, “METHOD FOR ASSAYING ACTION OF ANTITUMOR AGENT USING SPLICING DEFECTS AS INDEX” (Eisai R&D Management Co., Ltd., priority 2007, published 2010).
Further values from the same series stand in other lists.

System: peripheral blood mononuclear cells (PBMC)
Test: Microarray analysis (3), dose-dependent intron expression in PBMC at 3, 10, 30 nM, Table 5
Type: cell-based, human
Procedure: PBMC was suspended in RPMI1640 medium (containing 10% FBS, penicillin, and streptomycin) to 5×10^6 cells/ml and 1 ml of the suspension was plated per well of a 24-well plate. Immediately, 111 μl of 10 times-concentrated (8E,12E,14E)-7-((4-cycloheptylpiperazin-1-yl)carbonyl)oxy-3,6,16,21-tetrahydroxy-6,10,12,16,20-pentamethyl-18,19-epoxytricosa-8,12,14-trien-11-olide was added to the well (six wells per each concentration tested). The cells were then cultured in an incubator with 5% carbon dioxide gas at 37° C. Three hours later, the supernatant was collected and centrifuged at 1500 rpm for five minutes. TRI reagent (SIGMA) (1 ml) was added to each well of the plate from which the supernatant was removed to harvest the cells, which was added to the centrifuged pellet to dissolve. RNA was purified in accordance with the protocol of TRI reagent. RNA was further purified using RNeasy (QIAGEN) and, in accordance with the protocol, DNaseI was added to the samples during the procedure. Absorbance at 260 nm was measured to quantify an amount of RNA.
Ribosomal RNA was removed from 1 μg of each total RNA of control cells (n=3) and cells with the treatment (n=3) using RiboMinus Human/Mouse Transcriptome Isolation Kit (Invitrogen). Single stranded cDNA synthesis, double stranded cDNA synthesis, cRNA synthesis, second single stranded cDNA synthesis, cDNA fragmentation, and cDNA labeling in order were carried out for total RNA from which ribosomal RNA was removed, using GeneChip Whole Transcript Sense Target Labeling and Control Reagents (Affymetrix) to make a cDNA probe. Subsequently, the cDNA probe was used for hybridization with Human Exon 1.0 ST Array (Affymetrix). The array was washed and stained, and luminescence intensity was measured by a scanner.
The expression level of the probe set and the gene was quantified by using Expression Console Ver. 1.0 (Affymetrix) with Summarization Method and Normalization Method being set to “Median polish as used in RMA” and “None”, respectively. The expression level of the probe was normalized with that of the gene.
Probe sets showing that the normalized change in the level expression of the probe set in the group with the treatment at 30 nM was more than 5 times; the expression level of the probe set and the gene in the group with the treatment at 30 nM was more than 100; and probe set annotation was “extended, full, free”, were picked out. Regression analysis was performed with the probe sets extracted for the control group, the group with the treatment at 3 nM, the group with the treatment at 10 nM, and the group with the treatment at 30 nM to determine a p and q value for the slope of regression formula. A gene containing the probe sets with the q value of less than 5% was determined as a candidate gene with increased expression level of the intron regions (Table 5).
In Table 5, for the gene evaluated, gene name (Gene Name), abbreviated name (Gene Symbol), accession number (Accession), alias name (Synonym), transcription cluster number in Human Exon 1.0 ST Array (Human Exon 1.0 ST Array Transcription Cluster ID), chromosome number (Chromosome), type of strand (Strand), start region (Start), stop region (Stop), and change in expression level per 1 nM (Fold Change/nM) were respectively shown.

For `CCC(O)C(C)C1OC1CC(C)(O)/C=C/C=C(\C)C1OC(=O)CC(O)CCC(C)(O)C(OC(=O)N2CCN(C3CCCCCC3)CC2)/C=C/C1C` (stereo not shown) [E7107, (8E,12E,14E)-7-((4-cycloheptylpiperazin-1-yl)carbonyl)oxy-3,6,16,21-tetrahydroxy-6,10,12,16,20-pentamethyl-18,19-epoxytricosa-8,12,14-trien-11-olide], the “Fold Change/nM” value (introns of gene C1orf152 // PDE4DIP, regression over control, 3, 10, 30 nM) was 1.06 nM⁻¹, the “Fold Change/nM” value (introns of gene C3orf58, regression over control, 3, 10, 30 nM) was 1.04 nM⁻¹ and the “Fold Change/nM” value (introns of gene C6orf166, regression over control, 3, 10, 30 nM) was 1.04 nM⁻¹. The “Fold Change/nM” value (introns of gene C14orf32, regression over control, 3, 10, 30 nM) was 1.06 nM⁻¹, the “Fold Change/nM” value (introns of gene C14orf118, regression over control, 3, 10, 30 nM) was 1.05 nM⁻¹ and the “Fold Change/nM” value (introns of gene C20orf112, regression over control, 3, 10, 30 nM) was 1.04 nM⁻¹. For the same compound, the “Fold Change/nM” value (introns of gene CALM2, regression over control, 3, 10, 30 nM) was 1.07 nM⁻¹, the “Fold Change/nM” value (introns of gene CANX, regression over control, 3, 10, 30 nM) was 1.04 nM⁻¹ and the “Fold Change/nM” value (introns of gene CASP3, regression over control, 3, 10, 30 nM) was 1.04 nM⁻¹. The “Fold Change/nM” value (introns of gene CCDC47, regression over control, 3, 10, 30 nM) was 1.04 nM⁻¹, the “Fold Change/nM” value (introns of gene CCDC100, regression over control, 3, 10, 30 nM) was 1.04 nM⁻¹ and the “Fold Change/nM” value (introns of gene CCDC131, regression over control, 3, 10, 30 nM) was 1.07 nM⁻¹. For the same compound, the “Fold Change/nM” value (introns of gene CCL20, regression over control, 3, 10, 30 nM) was 1.06 nM⁻¹, the “Fold Change/nM” value (introns of gene CCNL2 // AURKAIP1, regression over control, 3, 10, 30 nM) was 1.05 nM⁻¹ and the “Fold Change/nM” value (introns of gene CCT4, regression over control, 3, 10, 30 nM) was 1.06 nM⁻¹. For the same compound, the “Fold Change/nM” value (introns of gene CD6, regression over control, 3, 10, 30 nM) was 1.04 nM⁻¹, the “Fold Change/nM” value (introns of gene CD14, regression over control, 3, 10, 30 nM) was 1.04 nM⁻¹ and the “Fold Change/nM” value (introns of gene CDC40, regression over control, 3, 10, 30 nM) was 1.04 nM⁻¹. The “Fold Change/nM” value (introns of gene CENPC1, regression over control, 3, 10, 30 nM) was 1.06 nM⁻¹, the “Fold Change/nM” value (introns of gene CENTD1, regression over control, 3, 10, 30 nM) was 1.05 nM⁻¹ and the “Fold Change/nM” value (introns of gene CENTD2, regression over control, 3, 10, 30 nM) was 1.04 nM⁻¹. The “Fold Change/nM” value (introns of gene CERK, regression over control, 3, 10, 30 nM) was 1.07 nM⁻¹, the “Fold Change/nM” value (introns of gene CGI-09, regression over control, 3, 10, 30 nM) was 1.04 nM⁻¹ and the “Fold Change/nM” value (introns of gene CHD4, regression over control, 3, 10, 30 nM) was 1.04 nM⁻¹. The “Fold Change/nM” value (introns of gene CLASP1, regression over control, 3, 10, 30 nM) was 1.04 nM⁻¹, the “Fold Change/nM” value (introns of gene CLIC4 // ADD3, regression over control, 3, 10, 30 nM) was 1.07 nM⁻¹ and the “Fold Change/nM” value (introns of gene CLINT1, regression over control, 3, 10, 30 nM) was 1.06 nM⁻¹. The “Fold Change/nM” value (introns of gene CLK1, regression over control, 3, 10, 30 nM) was 1.04 nM⁻¹, the “Fold Change/nM” value (introns of gene CLK3, regression over control, 3, 10, 30 nM) was 1.04 nM⁻¹ and the “Fold Change/nM” value (introns of gene CMIP, regression over control, 3, 10, 30 nM) was 1.04 nM⁻¹. For the same compound, the “Fold Change/nM” value (introns of gene CNP, regression over control, 3, 10, 30 nM) was 1.04 nM⁻¹, the “Fold Change/nM” value (introns of gene COPB2, regression over control, 3, 10, 30 nM) was 1.05 nM⁻¹ and the “Fold Change/nM” value (introns of gene COPS2, regression over control, 3, 10, 30 nM) was 1.07 nM⁻¹. The “Fold Change/nM” value (introns of gene CRSP2, regression over control, 3, 10, 30 nM) was 1.06 nM⁻¹, the “Fold Change/nM” value (introns of gene CSK, regression over control, 3, 10, 30 nM) was 1.04 nM⁻¹ and the “Fold Change/nM” value (introns of gene CSNK2A1 // CSNK2A1P, regression over control, 3, 10, 30 nM) was 1.04 nM⁻¹. The “Fold Change/nM” value (introns of gene DDX3X, regression over control, 3, 10, 30 nM) was 1.06 nM⁻¹, the “Fold Change/nM” value (introns of gene DDX47 // APOLD1, regression over control, 3, 10, 30 nM) was 1.04 nM⁻¹ and the “Fold Change/nM” value (introns of gene DENND3, regression over control, 3, 10, 30 nM) was 1.04 nM⁻¹. The “Fold Change/nM” value (introns of gene DMXL2, regression over control, 3, 10, 30 nM) was 1.06 nM⁻¹, the “Fold Change/nM” value (introns of gene DNAJC1, regression over control, 3, 10, 30 nM) was 1.04 nM⁻¹ and the “Fold Change/nM” value (introns of gene DNAJC3, regression over control, 3, 10, 30 nM) was 1.07 nM⁻¹. The “Fold Change/nM” value (introns of gene ECE1 // APBB2, regression over control, 3, 10, 30 nM) was 1.06 nM⁻¹, the “Fold Change/nM” value (introns of gene EHD4, regression over control, 3, 10, 30 nM) was 1.08 nM⁻¹ and the “Fold Change/nM” value (introns of gene EIF3S7, regression over control, 3, 10, 30 nM) was 1.04 nM⁻¹. The “Fold Change/nM” value (introns of gene EIF4A2, regression over control, 3, 10, 30 nM) was 1.04 nM⁻¹, the “Fold Change/nM” value (introns of gene ERCC1, regression over control, 3, 10, 30 nM) was 1.06 nM⁻¹ and the “Fold Change/nM” value (introns of gene EREG, regression over control, 3, 10, 30 nM) was 1.08 nM⁻¹. The “Fold Change/nM” value (introns of gene ETS2, regression over control, 3, 10, 30 nM) was 1.06 nM⁻¹, the “Fold Change/nM” value (introns of gene EWSR1, regression over control, 3, 10, 30 nM) was 1.04 nM⁻¹ and the “Fold Change/nM” value (introns of gene FAM44A, regression over control, 3, 10, 30 nM) was 1.04 nM⁻¹. The “Fold Change/nM” value (introns of gene FAM48A // FAM48B2, regression over control, 3, 10, 30 nM) was 1.04 nM⁻¹, the “Fold Change/nM” value (introns of gene FAM89B, regression over control, 3, 10, 30 nM) was 1.04 nM⁻¹ and the “Fold Change/nM” value (introns of gene FAS, regression over control, 3, 10, 30 nM) was 1.06 nM⁻¹. For the same compound, the “Fold Change/nM” value (introns of gene FAU, regression over control, 3, 10, 30 nM) was 1.05 nM⁻¹.
